Source: paper PMC10290137, “Systems-level analyses of protein-protein interaction network dysfunctions via epichaperomics identify cancer-specific mechanisms of stress adaptation” (Nature Communications, 2023)
Results are given in words; binding and its absence hold for the method and conditions named. Binding seen in cells or lysates may run through a third protein. Some binding calls cover weakened binding; strength is not graded here.

Chains of the proteins cited; added tags and fusions are not shown.
UniProt P11142: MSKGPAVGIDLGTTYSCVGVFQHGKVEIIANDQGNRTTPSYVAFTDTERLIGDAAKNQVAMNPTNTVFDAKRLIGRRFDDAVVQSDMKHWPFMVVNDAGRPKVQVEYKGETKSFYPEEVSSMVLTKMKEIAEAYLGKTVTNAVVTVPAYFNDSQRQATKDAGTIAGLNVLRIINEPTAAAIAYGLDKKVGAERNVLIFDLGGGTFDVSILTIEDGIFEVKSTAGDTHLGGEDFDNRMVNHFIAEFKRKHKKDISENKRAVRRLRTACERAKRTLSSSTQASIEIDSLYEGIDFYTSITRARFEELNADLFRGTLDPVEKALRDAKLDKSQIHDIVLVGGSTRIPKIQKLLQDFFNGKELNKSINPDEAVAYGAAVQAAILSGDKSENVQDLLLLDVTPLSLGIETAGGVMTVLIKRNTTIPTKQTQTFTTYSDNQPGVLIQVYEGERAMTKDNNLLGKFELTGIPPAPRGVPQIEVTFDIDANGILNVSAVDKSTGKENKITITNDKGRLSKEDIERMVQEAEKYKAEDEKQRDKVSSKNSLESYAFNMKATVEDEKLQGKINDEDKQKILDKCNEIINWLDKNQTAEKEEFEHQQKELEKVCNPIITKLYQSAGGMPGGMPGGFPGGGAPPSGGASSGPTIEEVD
UniProt P08238: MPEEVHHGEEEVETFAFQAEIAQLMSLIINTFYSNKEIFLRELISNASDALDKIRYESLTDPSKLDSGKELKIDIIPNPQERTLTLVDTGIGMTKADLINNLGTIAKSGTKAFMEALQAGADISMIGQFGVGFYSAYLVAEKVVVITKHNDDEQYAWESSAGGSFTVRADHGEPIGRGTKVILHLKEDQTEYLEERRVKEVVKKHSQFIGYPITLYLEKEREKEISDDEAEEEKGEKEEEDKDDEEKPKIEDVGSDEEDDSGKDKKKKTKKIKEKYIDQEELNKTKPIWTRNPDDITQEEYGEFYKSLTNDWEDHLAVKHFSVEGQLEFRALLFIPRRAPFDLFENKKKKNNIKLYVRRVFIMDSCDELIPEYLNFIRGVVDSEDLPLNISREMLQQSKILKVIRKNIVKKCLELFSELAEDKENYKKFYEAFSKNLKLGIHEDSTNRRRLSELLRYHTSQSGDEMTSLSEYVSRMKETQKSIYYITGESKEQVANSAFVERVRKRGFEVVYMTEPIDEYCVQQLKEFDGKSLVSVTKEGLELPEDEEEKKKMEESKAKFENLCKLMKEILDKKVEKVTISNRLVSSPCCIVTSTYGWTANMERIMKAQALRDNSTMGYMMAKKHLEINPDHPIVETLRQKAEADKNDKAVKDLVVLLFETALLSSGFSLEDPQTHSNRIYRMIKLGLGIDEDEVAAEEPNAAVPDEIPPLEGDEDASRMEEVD
UniProt P40763: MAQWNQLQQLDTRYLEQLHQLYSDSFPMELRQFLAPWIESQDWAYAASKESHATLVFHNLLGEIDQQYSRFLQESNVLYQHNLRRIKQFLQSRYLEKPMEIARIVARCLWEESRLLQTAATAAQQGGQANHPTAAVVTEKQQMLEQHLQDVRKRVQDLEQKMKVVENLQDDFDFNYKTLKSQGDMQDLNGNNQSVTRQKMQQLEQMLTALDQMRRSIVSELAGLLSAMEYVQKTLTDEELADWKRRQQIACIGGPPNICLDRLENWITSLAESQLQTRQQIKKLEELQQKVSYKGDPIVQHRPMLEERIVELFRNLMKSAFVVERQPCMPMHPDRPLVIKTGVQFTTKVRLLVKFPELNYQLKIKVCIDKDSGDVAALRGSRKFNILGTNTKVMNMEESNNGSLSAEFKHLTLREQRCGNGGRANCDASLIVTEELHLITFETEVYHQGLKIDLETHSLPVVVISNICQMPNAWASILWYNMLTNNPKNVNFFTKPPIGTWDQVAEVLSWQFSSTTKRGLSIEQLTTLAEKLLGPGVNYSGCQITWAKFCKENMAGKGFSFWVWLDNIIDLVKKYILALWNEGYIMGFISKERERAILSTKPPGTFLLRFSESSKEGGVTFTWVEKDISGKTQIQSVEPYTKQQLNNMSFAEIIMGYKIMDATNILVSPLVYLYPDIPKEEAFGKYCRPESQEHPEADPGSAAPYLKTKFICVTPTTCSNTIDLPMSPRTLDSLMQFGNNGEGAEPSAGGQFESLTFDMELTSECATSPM
UniProt Q92598: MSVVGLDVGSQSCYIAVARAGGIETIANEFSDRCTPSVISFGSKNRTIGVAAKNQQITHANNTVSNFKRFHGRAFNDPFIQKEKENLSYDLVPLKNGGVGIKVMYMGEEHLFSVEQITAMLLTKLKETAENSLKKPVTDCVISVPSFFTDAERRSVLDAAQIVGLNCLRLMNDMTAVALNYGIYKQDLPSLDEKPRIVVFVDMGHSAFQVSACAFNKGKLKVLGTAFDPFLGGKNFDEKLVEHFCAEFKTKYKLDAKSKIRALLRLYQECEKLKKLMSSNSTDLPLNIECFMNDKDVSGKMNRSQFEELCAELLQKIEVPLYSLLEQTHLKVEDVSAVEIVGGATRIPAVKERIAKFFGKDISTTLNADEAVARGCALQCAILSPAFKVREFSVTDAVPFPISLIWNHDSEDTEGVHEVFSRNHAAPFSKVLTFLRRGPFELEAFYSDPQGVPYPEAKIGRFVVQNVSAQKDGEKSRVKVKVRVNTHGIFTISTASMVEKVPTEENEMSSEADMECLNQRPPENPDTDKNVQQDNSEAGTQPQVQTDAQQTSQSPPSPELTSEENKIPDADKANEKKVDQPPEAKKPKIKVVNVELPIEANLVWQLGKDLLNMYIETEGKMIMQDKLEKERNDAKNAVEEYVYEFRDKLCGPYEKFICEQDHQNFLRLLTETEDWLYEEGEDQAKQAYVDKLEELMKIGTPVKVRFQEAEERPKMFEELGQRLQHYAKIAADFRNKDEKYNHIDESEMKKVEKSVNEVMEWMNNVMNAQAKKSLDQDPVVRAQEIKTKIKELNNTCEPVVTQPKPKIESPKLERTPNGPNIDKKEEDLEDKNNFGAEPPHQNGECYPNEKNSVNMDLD

What was measured:
[1] = target: heat shock cognate 70 (HSC70) (human (endogenous in MDA-MB-468)) (UniProt P11142); assay: co-IP; anti-HSC70 antibody (ADI-SPA-815) or normal rat IgG, protein G agarose, 250 µg MDA-MB-468 lysate in 20 mM Tris pH 7.4, 20 mM KCl, 5 mM MgCl2, 0.01% NP40, 4 °C overnight; cells treated with 2 µM LSI137 for the indicated times; Western blot
[2] = target: heat shock protein 90 beta (HSP90β) (human (endogenous in MDA-MB-468)) (UniProt P08238); assay: pull-down; chemical affinity purification: PU-H71 immobilised beads (PU-beads, HSP90 ligand; 40 µL, 3 h, 4 °C) with lysate of MDA-MB-468 cells pre-treated with vehicle or LSI137 (1 µM, 2 h); Western blot
[3] = target: heat shock cognate 70 (HSC70) (human (endogenous in MDA-MB-468)) (UniProt P11142); assay: pull-down; chemical affinity purification: YK5-B (biotinylated HSP70s ligand) on streptavidin beads incubated with MDA-MB-468 (and ASPC1) homogenate in 20 mM Tris pH 7.4, 20 mM KCl, 5 mM MgCl2, 0.01% NP40, 4 °C; cargo washed 4x, Western blot; controls YK56 or biotin beads; cells also pre-treated with PU-H71 (1 µM, 2 h)

“signal transducer and activator of transcription 3 (STAT3) (from UniProt P40763 1-770)” was tested, and the binding [1] was “binds”.

HSP110 (from UniProt Q92598 1-858) was tested, and the binding [2] was “binds” and the binding [3] was “binds”.
